Literature values, collected in patent US20260240799A1, “TREATMENT OF PRIMARY BILIARY CHOLANGITIS” (Genfit, priority 2023, published 2026).
At least one structure is not confirmed: it was looked up by name or label, or the drawing left a doubt.

Test system: patients with PBC
Details: over 15 years; cited from earlier work

For C[C@H](CCC(=O)O)[C@H]1CC[C@H]2[C@@H]3[C@@H](O)C[C@@H]4C[C@H](O)CC[C@]4(C)[C@H]3CC[C@]12C [UDCA, ursodeoxycholic acid], the “UDCA-treated patients progressing to liver transplant or death” value is given as 44%.
